Experimental findings from PubChem BioAssay (NCATS) are described below.

Assay [1] is described as follows: qHTS assay for small molecule antagonists of androgen receptor signaling (AID 588516). The note with it: AR-UAS-bla HEK293, beta-lactamase ratio, antagonist mode, 16 h. Put shortly:
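Cells were plated and incubated 5 h, compounds added in titration, then R1881 (10 nM final) as agonist. After 16 h at 37 C, CCF4 substrate was loaded for 2 h at room temperature and fluorescence measured.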
On the technique in general: In qHTS, concentration-response curves come from the screen itself.

The nature of assay [2]: qHTS assay for small molecule antagonists of peroxisome proliferator-activated receptor gamma signaling (AID 588537). The note with it: HEK293 PPARg-UAS-bla, beta-lactamase ratio, antagonist mode; measured here: W460 blue channel. In a few lines: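 Antagonist mode, beta-lactamase reporter in HEK293; charcoal/dextran FBS 1%; 3000 cells/well, 37 C 6-6.5 h; cpd titration + rosiglitazone 50 nM final, 16 h 37 C; CCF4, 2 h RT; 460/530 nm; Hill fit → IC50, efficacy.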

Assay [3] is described as follows: qHTS assay for small molecule antagonists of vitamin D receptor signaling (AID 588541). The note with it: HEK293T VDR-UAS-bla, beta-lactamase ratio, antagonist mode; measured here: W460 blue channel (cell viability).
Assay [4] can be described thus: qHTS assay for small molecule antagonists of retinoid X receptor alpha signaling (AID 588546).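 Also: cells stimulated with 9-cis-retinoic acid as agonist; % is scaled to controls: 0 for no effect and ±100 for the full control effect.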 The note with it: HEK293T RXRa-UAS-bla, beta-lactamase ratio, antagonist mode; measured here: W530 green channel, cytotoxicity proxy. In a few lines:
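Beta-lactamase reporter inhibition, read as CCF4 fluorescence ratio (ex 405, em 460/530 nm) after 2 h at RT. HEK293T UAS-bla cells, 2500/well, were stimulated with 9-cis-RA at 500 or 100 nM final alongside test compound for 18 h at 37 C.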

A short description of assay [5]: qHTS assay for small molecule antagonists of peroxisome proliferator-activated receptor delta signaling (AID 588535).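 Also: cells co-treated with a PPAR-delta agonist as stimulator during compound exposure.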 The conditions noted are these: HEK293T PPARd-UAS-bla, beta-lactamase FRET ratio, 18 h; 460 nm channel. In a few lines: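 HEK293T PPAR-delta-UAS-bla cells, 4000/well, 2% charcoal/dextran FBS; 5 h 37 C; cpd titration; 18 h 37 C; CCF4 2 h RT; FI 460/530 nm; Hill fit → IC50, efficacy.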

Assay [6] is described as follows: qHTS assay for small molecule agonists of retinoid X receptor alpha signaling (AID 588544). The note with it: HEK293T RXRa-UAS-bla, beta-lactamase reporter, 18 h; 530 nm emission.
Where [7] appears, read: measured here: W530 green channel, cytotoxicity/artifact.
[8] abbreviates: measured here: W460 blue channel fit.

Structures are written as SMILES. Values joined by “and” are separate entries in the source; they are usually repeats but may differ in a detail not shown here. Equal entries are not always repeated. Some of the results follow. The main result of the screen is listed elsewhere. These columns were measured beside it and carry no call. Compounds called inactive in the main read-out are mostly missing here. For some assays here: Potencies come from curve fits of mixed quality, noted in brackets.

`O=C(O)CN(CCCN(CC(=O)O)CC(=O)O)CC(=O)O`: the AC50 (in general, the concentration giving half of the maximal activity seen) in assay [1] (setting [7]) was 28.2 µM [rising, single point]; in assay [2], 17.8 µM [falling, partial curve, poor fit]; in assay [3] it was 15.8 µM [falling, full curve, poor fit]. Also, the max response in assay [4] is -5.69%.

Turning to `O=C(NO)c1ccccc1`, the half-maximal activity concentration (AC50) in assay [1] (setting [7]) was 15.8 µM [rising, full curve, poor fit]. Moreover, the max response was -59% in assay [5] and 0.243% in assay [6].

As for `CC(=O)Nc1ccc(C(=O)CCl)cc1`, the AC50 in assay [1] (setting [8]) is 50.1 µM [falling, single point]; in assay [3], 22.4 µM [falling, full curve, poor fit] and 25.1 µM [falling, full curve, poor fit]. The max response was -74.2% and -77.2% in assay [5]; -1.55% and 45.5% in assay [6]; -6.08% and -38.7% in assay [4].

On to `COc1ccc(C(=O)c2ccccc2)c(O)c1`, for which the AC50 was 0.0126 µM [falling, full curve, poor fit] in assay [1] (setting [8]) and 50.1 µM [rising, single point] in assay [2]. Moreover, the max response in assay [6] is 31.6% and 37.9%.

For `CC(=O)Nc1ccc(N)cc1`, the AC50 in assay [1] (setting [8]) was 0.112 µM [falling, full curve, poor fit]. Moreover, the max response in assay [5] was -8.24%.

Take `Oc1ccc(Nc2ccccc2)cc1`: the AC50 was 44.7 µM [falling, partial curve, poor fit] in assay [1] (setting [8]) and 6.31 µM [rising, full curve, poor fit] in assay [1] (setting [7]). The max response stood at 84.9% in assay [5], 51.8% in assay [6] and 13.4% in assay [4].

`CCC(=O)C1C(=O)CC(C(=O)O)CC1=O` (centres undefined): the AC50 in assay [1] (setting [8]) is 0.0355 µM [rising, full curve, poor fit]. In addition, the max response in assay [5] is -55.4%; in assay [4], 4.99%.

For the molecule `Nc1cc(Cl)c(O)c(Cl)c1`, the AC50 in assay [1] (setting [7]) is 31.6 µM [rising, partial curve, poor fit]. Further, the figures for the max response in assay [5], in assay [6] and in assay [4] were 131%, 48.8% and 47.6%, respectively.
